Assay results taken from US8293731B2, “HIV integrase inhibitors” (Merck Sharp + Dohme Corp., priority 2005, dated 2012).
Some results were stated once for a whole list of compounds, not compound by compound.

Biological target: T1, HIV integrase (Human immunodeficiency virus type 1 group M subtype B, UniProt P04585)
T1 construct: HIV Integrase Assay: Strand Transfer Catalyzed by Recombinant Integrase
Assay: HIV integrase assay: strand transfer catalyzed by recombinant integrase
Format: biochemical
Conditions: 'less than about', read-out: IC50, inhibition of strand transfer activity of integrase

SMILES | IC50 [nM]
O=C1c2c(c3n(c(=O)c2O)CCCCN(CCN2CCOCC2)C3=O)CCN1Cc1ccc(F)c(Cl)c1 [Example 16, 11-(3-Chloro-4-fluorobenzyl)-9-hydroxy-2-(2-morpholin-4-ylethyl)-3,4,5,6,12,13-hexahydro-2H[1,4]diazocino[2,1a]-2,6-naphthyridine-1,8,10(11H)-trione] | < 1000
CC1(CCO)C(=O)N(CCO)c2c3c(c(O)c(=O)n21)C(=O)N(Cc1ccc(F)c(Cl)c1)CC3 (stereo not shown) [Example 60, 8-(3-Chloro-4-fluorobenzyl)-6-hydroxy-1,3-bis(2-hydroxyethyl)-3-methyl-1,8,9,10-tetrahydroimidazo[2,1-a]-2,6-naphthyridine-2,5,7(3H)-trione] | < 1000
CN1CC(O)CCn2c(c3c(c(O)c2=O)C(=O)N(Cc2ccc(F)c(Cl)c2)CC3)C1=O (single isomer, unassigned) [Example 23, 11-(3-Chloro-4-fluorobenzyl)-4,9-dihydroxy-2-methyl-3,4,5,6,12,13-hexahydro-2H[1,4]diazocino[2,1-a]-2,6-naphthyridine-1,8,10(11H)-trione] | < 1000
CN(C)C(=O)CN1C(=O)C(C)(C)n2c1c1c(c(O)c2=O)C(=O)N(Cc2ccc(F)c(Cl)c2)CC1 [Example 51, 2-[8-(3-Chloro-4-fluorobenzyl)-6-hydroxy-3,3-dimethyl-2,5,7-trioxo-2,3,7,8,9,10-hexahydroimidazo[2,1-a]-2,6-naphthyridin-1(5H)-yl]-N,N-dimethylacetamide] | < 1000
CC1CCCN(CCn2ccnc2)C(=O)c2c3c(c(O)c(=O)n21)C(=O)N(Cc1ccc(F)c(Cl)c1)CC3 (stereo not shown) [Example 36, 11-(3-Chloro-4-fluorobenzyl)-9-hydroxy-2-[2-(1H-imidazol-1-yl)ethyl]-6-methyl-3,4,5,6,12,13-hexahydro-2H[1,4]diazocino[2,1-a]-2,6-naphthyridine-1,8,10(11H)-trione] | < 1000
CN1CC(O)C(C)(C)Cn2c(c3c(c(O)c2=O)C(=O)N(Cc2ccc(F)cc2)CC3)C1=O (racemic) [Example 42, (4R/S)-11-(4-Fluorobenzyl)-4,9-dihydroxy-2,5,5-trimethyl-3,4,5,6,12,13-hexahydro-2H[1,4]diazocino[2,1-a]-2,6-naphthyridine-1,8,10(11H)-trione] | < 1000
CNC(=O)CN1C(=O)C(C)(C)n2c1c1c(c(O)c2=O)C(=O)N(Cc2ccc(F)c(Cl)c2)CC1 [Example 52, 2-[8-(3-Chloro-4-fluorobenzyl)-6-hydroxy-3,3-dimethyl-2,5,7-trioxo-2,3,7,8,9,10-hexahydroimidazo[2,1-a]-2,6-naphthyridin-1(5H)-yl]-N-methylacetamide] | < 1000
O=C1NCCCn2c1c1c(c(O)c2=O)C(=O)N(Cc2ccc(F)c(Cl)c2)CC1 [Example 4, 10-(3-Chloro-4-fluorobenzyl)-8-hydroxy-2,3,4,5,11,12-hexahydro[1,4]diazepino[2,1-a]-2,6-naphthyridine-1,7,9(10H)-trione] | < 1000
CC1CCCN(CCO)C(=O)c2c3c(c(O)c(=O)n21)C(=O)N(Cc1ccc(F)c(Cl)c1)CC3 (stereo not shown) [Example 30, 11-(3-Chloro-4-fluorobenzyl)-9-hydroxy-2-(2-hydroxyethyl)-6-methyl-3,4,5,6,12,13-hexahydro-2H[1,4]diazocino[2,1-a]-2,6-naphthyridine-1,8,10(11H)-trione] | < 1000
CC(=O)OCCCCN1C(=O)C(C)(C)n2c1c1c(c(O)c2=O)C(=O)N(Cc2ccc(F)c(Cl)c2)CC1 [Example 59, 8-(3-Chloro-4-fluorobenzyl)-6-hydroxy-1-(4-acetyloxybutyl)-3,3-dimethyl-1,8,9,10-tetrahydroimidazo[2,1-a]-2,6-naphthyridine-2,5,7(3H)-trione] | < 1000
CN1CC(O)C(C)(C)Cn2c(c3c(c(O)c2=O)C(=O)N(Cc2ccc(F)c(Cl)c2)CC3)C1=O (racemic) [Example 38, (4R/S)-11-(3-Chloro-4-fluorobenzyl)-4,9-dihydroxy-2,5,5-trimethyl-3,4,5,6,12,13-hexahydro-2H[1,4]diazocino[2,1-a]-2,6-naphthyridine-1,8,10(11H)-trione] | < 1000
O=C1c2c(c3n(c(=O)c2O)CCCCN(CCN2CCCC2)C3=O)CCN1Cc1ccc(F)c(Cl)c1 [Example 17, 11-(3-Chloro-4-fluorobenzyl)-9-hydroxy-2-(2-pyrrolidinyl-1-ylethyl)-3,4,5,6,12,13-hexahydro-2H[1,4]diazocino[2,1-a]-2,6-naphthyridine-1,8,10(11H)-trione] | < 1000
NCCN1CCCCn2c(c3c(c(O)c2=O)C(=O)N(Cc2ccc(F)c(Cl)c2)CC3)C1=O [Example 19, 11-(3-Chloro-4-fluorobenzyl)-9-hydroxy-2-(2-aminoethyl)-3,4,5,6,12,13-hexahydro-2H[1,4]diazocino[2,1-a]-2,6-naphthyridine-1,8,10(11H)-trione] | < 1000
CN1CCC[C@H](CO)n2c(c3c(c(O)c2=O)C(=O)N(Cc2ccc(F)cc2)CC3)C1=O [Example 48, (6R) 11-(4-Fluorobenzyl)-9-hydroxy-6-(hydroxymethyl)-2-methyl-3,4,5,6,12,13-hexahydro-2H-[1,4]diazocino[2,1-a]2,6-naphthyridine-1,8,10(11H)-trione] | < 1000
CC(=O)NCCN1CCCCn2c(c3c(c(O)c2=O)C(=O)N(Cc2ccc(F)c(Cl)c2)CC3)C1=O [Example 20, 11-(3-Chloro-4-fluorobenzyl)-9-hydroxy-2-[2-(acetylamino)ethyl]-3,4,5,6,12,13-hexahydro-2H[1,4]diazocino[2,1-a]-2,6-naphthyridine-1,8,10(11H)-trione] | < 1000
CN1CCC(O)Cn2c(c3c(c(O)c2=O)C(=O)N(Cc2ccc(F)c(Cl)c2)CC3)C1=O (stereo not shown) [Example 37, 11(3-Chloro-4-fluorobenzyl)-5,9-dihydroxy-2-methyl-3,4,5,6,12,13-hexahydro-2H[1,4]diazocino[2,1-a]-2,6-naphthyridine-1,8,10(11H)-trione] | < 1000
O=C(O)CN1CCCCn2c(c3c(c(O)c2=O)C(=O)N(Cc2ccc(F)c(Cl)c2)CC3)C1=O [Example 12, [11-(3-Chloro-4-fluorobenzyl)-9-hydroxy-1,8,10-trioxo-1,3,4,5,6,8,10,11,12,13-deca-hydro-2H-[1,4]diazocino[2,1-a]-2,6-naphthyridin-2-yl]acetic acid] | < 1000
O=C1c2c(c3n(c(=O)c2O)CCCCN(CCO)C3=O)CCN1Cc1ccc(F)c(Cl)c1 [Example 11, 11-(3-Chloro-4-fluorobenzyl)-9-hydroxy-2-(2-hydroxyethyl)-3,4,5,6,12,13-hexahydro-2H[1,4]diazocino[2,1-a]-2,6-naphthyridine-1,8,10(11H)-trione] | < 1000
CN1CC(N2CCOCC2)CCn2c(c3c(c(O)c2=O)C(=O)N(Cc2ccc(F)c(Cl)c2)CC3)C1=O (stereo not shown) [Example 27, 11-(3-Chloro-4-fluorobenzyl)-9-hydroxy-2-methyl-4-morpholin-4-yl-3,4,5,6,12,13-hexahydro-2H[1,4]diazocino[2,1-a]-2,6-naphthyridine-1,8,10(11H)-trione] | < 1000
CC(=O)OCCCN1C(=O)C(C)(C)n2c1c1c(c(O)c2=O)C(=O)N(Cc2ccc(F)c(Cl)c2)CC1 [Example 58, 8-(3-Chloro-4-fluorobenzyl)-6-hydroxy-1-(3-acetyloxypropyl)-3,3-dimethyl-1,8,9,10-tetrahydroimidazo[2,1-a]-2,6-naphthyridine-2,5,7(3H)-trione] | < 1000
NC(=O)CN1CCCCn2c(c3c(c(O)c2=O)C(=O)N(Cc2ccc(F)c(Cl)c2)CC3)C1=O [Example 15, 2-[11-(3-Chloro-4-fluorobenzyl)-9-hydroxy-1,8,10-trioxo-1,3,4,5,6,8,10,11,12,13-deca-hydro-2H-[1,4]diazocino[2,1-a]-2,6-naphthyridin-2-yl]acetamide] | < 1000
CN(C)C(=O)CN1CCCCn2c(c3c(c(O)c2=O)C(=O)N(Cc2ccc(F)c(Cl)c2)CC3)C1=O [Example 13, 2-[11-(3-Chloro-4-fluorobenzyl)-9-hydroxy-1,8,10-trioxo-1,3,4,5,6,8,10,11,12,13-deca-hydro-2H-[1,4]diazocino[2,1-a]-2,6-naphthyridin-2-yl]-N,N-dimethylacetamide] | < 1000
CC1CCn2c(c3c(c(O)c2=O)C(=O)N(Cc2ccc(F)c(Cl)c2)CC3)C(=O)N(C)C1 (stereo not shown) [Example 46, 11-(3-Chloro-4-fluorobenzyl)-9-hydroxy-2,4-dimethyl-3,4,5,6,12,13-hexahydro-2H[1,4]diazocino[2,1-a]-2,6-naphthyridine-1,8,10(11H)-trione] | < 1000
CC1CCCN(C)C(=O)c2c3c(c(O)c(=O)n21)C(=O)N(Cc1ccc(F)c(Cl)c1)CC3 (stereo not shown) [Example 28, 11-(3-Chloro-4-fluorobenzyl)-9-hydroxy-2,6-dimethyl-3,4,5,6,12,13-hexahydro-2H[1,4]diazocino[2,1-a]2,6-naphthyridine-1,8,10(11H)-trione] | < 1000
C=C1CCCN(C)C(=O)c2c3c(c(O)c(=O)n21)C(=O)N(Cc1ccc(F)c(Cl)c1)CC3 [Example 50, 11-(3-chloro-4-fluorobenzyl)-9-hydroxy-2-methyl-6-methylene-3,4,5,6,12,13-hexahydro-2H-[1,4]diazocino[2,1-a]2,6-naphthyridine-1,8,10(11H)trione] | < 1000
CN1CC(O)C(C)(C)Cn2c(c3c(c(O)c2=O)C(=O)N(Cc2ccc(F)c(Cl)c2)CC3)C1=O (racemic) [Example 40, (4R/S)-11-(3-Chloro-4-fluorobenzyl)-4,9-dihydroxy-2,5,5-trimethyl-3,4,5,6,12,13-hexahydro-2H[1,4]diazocino[2,1-a]-2,6-naphthyridine-1,8,10(11H)-trione] | < 1000
CN1CCCCn2c(c3c(c(O)c2=O)C(=O)N(Cc2ccc(F)cc2)CC3)C1=O [Example 2, 11-(4-Fluorobenzyl)-9-hydroxy-2-methyl-3,4,5,6,12,13-hexahydro-2H[1,4]diazocino[2,1-a]-2,6-naphthyridine-1,8,10(11H)-trione] | < 1000
CN1CCCn2c(c3c(c(O)c2=O)C(=O)N(Cc2ccc(F)c(Cl)c2)CC3)C1=O [Example 3, 10-(3-Chloro-4-fluorobenzyl)-8-hydroxy-2-methyl-2,3,4,5,11,12-hexahydro[1,4]diazepino[2,1-a]-2,6-naphthyridine-1,7,9(10H)-trione] | < 1000
